Inhibition data for six molecules are collected here from PubChem BioAssay AID556 (SRMLSC, 2006).

The structures appear in SMILES notation. The list shows a part of the results.

This experiment relates to diphosphomevalonate decarboxylase (Streptococcus pneumoniae D39). Description: diphosphomevalonate decarboxylase activity blockers – biochemical, PK/LDH-coupled NADH fluorescence, primary screen (AID 556).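 Further: kinetic rate of NADH fluorescence loss reporting ADP formed by the decarboxylase; 0% = full reaction rate with carrier and 100% = no-substrate background rate.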 The conditions noted are these: purified DPM-DC, measured here: pilot screen trials, at 10 µM, stronger effect = higher value.
`CP(=S)(Nn1cnnc1)Oc1ccccc1` (stereo unspecified) gave an inhibition of 2%. `CCOP1(=S)c2c(C)nn(CCC#N)c2N=C(c2ccccc2F)N1C` (stereo unspecified) came in with an inhibition of 0.5%.

Molecule `Cc1ccc(C)c(NP(C)(=O)Oc2ccccc2)c1` (stereo unspecified) yielded an inhibition of 3%. The molecule `CN(C)CCOC(=O)C(O)(c1ccccc1)C1CCCCC1` (stereo unspecified) displayed an inhibition of 1%. The molecule `CP(=O)(Nc1ccc2c(c1)OCCO2)Oc1ccccc1` (stereo unspecified) came in with an inhibition of 3.5%. The molecule `CP(=O)(Nc1ccccn1)Oc1ccccc1` (stereo unspecified) gave an inhibition of 0.5%.

In general, inhibition refers to the drop in the measured response relative to a control, in per cent.
